Reference: publication PMC9063202 (2022)
These are yes or no findings as the source states them, for the method shown. In cells and extracts the contact can be indirect. A result given as binding can be weak or reduced; the word gives no strength.

Chains of the proteins cited; added tags and fusions are not shown. Lines headed by an entry give the natural chain unless they say otherwise; changes in a name come on top.
UniProt Q8NAU1: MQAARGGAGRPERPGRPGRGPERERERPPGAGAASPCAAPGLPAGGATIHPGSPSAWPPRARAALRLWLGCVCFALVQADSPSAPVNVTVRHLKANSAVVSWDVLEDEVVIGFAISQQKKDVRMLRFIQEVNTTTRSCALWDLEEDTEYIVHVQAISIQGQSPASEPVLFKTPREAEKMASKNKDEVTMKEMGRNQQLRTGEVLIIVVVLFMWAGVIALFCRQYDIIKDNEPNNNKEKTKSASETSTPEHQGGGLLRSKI

Target: T1, TRPC3 overexpressed in 293T cells (UniProt Q13507)
T1 sequence: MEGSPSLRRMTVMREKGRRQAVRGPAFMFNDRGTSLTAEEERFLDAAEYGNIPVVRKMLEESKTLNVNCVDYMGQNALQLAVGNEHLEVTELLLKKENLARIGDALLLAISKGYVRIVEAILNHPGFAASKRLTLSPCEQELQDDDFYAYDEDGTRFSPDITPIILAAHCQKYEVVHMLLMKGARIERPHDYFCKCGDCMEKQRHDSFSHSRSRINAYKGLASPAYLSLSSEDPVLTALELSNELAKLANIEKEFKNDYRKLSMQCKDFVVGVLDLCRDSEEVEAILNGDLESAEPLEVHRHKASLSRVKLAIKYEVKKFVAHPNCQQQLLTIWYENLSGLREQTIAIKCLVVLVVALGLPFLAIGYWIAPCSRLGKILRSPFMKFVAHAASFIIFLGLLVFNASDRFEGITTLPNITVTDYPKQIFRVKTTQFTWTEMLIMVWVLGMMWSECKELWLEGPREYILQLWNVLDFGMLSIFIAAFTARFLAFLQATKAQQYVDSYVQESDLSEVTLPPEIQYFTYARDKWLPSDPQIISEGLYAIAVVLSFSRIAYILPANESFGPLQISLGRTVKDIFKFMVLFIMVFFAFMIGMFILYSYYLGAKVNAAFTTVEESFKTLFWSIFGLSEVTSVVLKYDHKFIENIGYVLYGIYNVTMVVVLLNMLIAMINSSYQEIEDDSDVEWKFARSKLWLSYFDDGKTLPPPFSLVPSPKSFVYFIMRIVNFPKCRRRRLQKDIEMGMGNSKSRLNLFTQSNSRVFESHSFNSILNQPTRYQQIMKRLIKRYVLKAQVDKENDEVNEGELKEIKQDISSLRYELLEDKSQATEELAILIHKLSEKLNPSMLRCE
Experiment: co-IP; 293T cells transfected with TRPC3 plasmid and treated with IRISIN protein 100 ng/ul; lysate precipitated with TRPC3 antibody coupled to magnetic beads (Pierce Co-IP kit), 2 h at room temperature; western blot; only the binder purified

binding: binds
Substance: IRISIN protein (human recombinant IRISIN) (from UniProt Q8NAU1) (ligand)
